Assay results

From PubChem BioAssay record AID1159506 (NCATS, 2015).

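Luminescence from an EWS-FLI1 target-promoter (NR0B1) reporter, set against a CMV-promoter reporter, two days after silencing single genes in TC32 Ewing sarcoma cells. Each siRNA was applied at 20 nM. A z-score of the log NR0B1-over-CMV signal, less the median of siRNAs with the same seed; more negative means a stronger specific loss of the NR0B1 reporter.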

The strongest results of the screen are mostly left out here. Sequences are the guide (antisense) strand, without overhang.

| # | siRNA | gene | seed-corrected z-score |
|---|---|---|---|
| 1 | `UCUCCGAUGAGCAACAAGG` | ZNF606 | -0.3773 |
| 2 | `UACUUGACAUCUUCCGAUC` | WWC3 | -1.194 |
| 3 | `UAAGUGACUCUUAUGCUUA` | FAM63A | 0.1974 |
| 4 | `UUUCUGCUAUGUCAUGCAC` | ADCK5 | -1.224 |
| 5 | `UCUUCGUACAGAUUACUUG` | FAM81B | 0.5772 |
| 6 | `UUCUGUUCAAGAAGUCGUC` | ZNF207 | -0.6316 |
| 7 | `AAUGGUGUUGGUUGGGUUG` | OSBPL10 | 1.116 |
| 8 | `UCUGUUGACUAGAUAGUCC` | ENPEP | 0.4338 |
| 9 | `UUGGUGACCGCAGAGAUGC` | CACNA1I | -0.08863 |
| 10 | `UCCAGUUACAUCAGUUUUG` | PMS2P2 | 1.168 |
| 11 | `AGAAUUAUCCGUCAGUCCC` | OR6C70 | 0.7289 |
| 12 | `UCGUGUGCUCCUUUUGUUG` | IFI35 | 0.6698 |
| 13 | `ACAGGUGUGCGGUUCAUGG` | ACY1 | -0.6667 |
| 14 | `AAAGAUCUUCAGAGAGAGG` | GOLGA2P10 | 0.03404 |
| 15 | `UGUACUGCAAGUGUCGUGG` | FCHO2 | 0.3356 |
| 16 | `AUAGUGAUCUCUUCCGAGG` | POU2F1 | 0.127 |
| 17 | `UAUGGAGUAGAGGCGGGUG` | MFAP2 | -0.5939 |
| 18 | `ACAGGUAUUACCGAGGCGA` | MIEN1 | 0.2256 |
| 19 | `UGCAUUAUCAGGGUCCAGC` | TMOD1 | 0.3663 |
| 20 | `UAGUUUAUUUCGUUCCCGG` | FOSB | -0.3124 |
| 21 | `AACCGUGUAAGUCUGGUAC` | MCF2L | -0.605 |
| 22 | `UGUAGUACUGCUGAUGUGG` | TBX15 | -0.8033 |
| 23 | `UCGGUCAUUAGAUAUCCGC` | PPM1H | -0.03471 |
| 24 | `UUCUCAAUCAGAUAUAAAG` | TTC38 | 0.5266 |
| 25 | `UGUCUGAUCGUCUCCACCG` | RLN3 | -0.1023 |
| 26 | `UUCCCGUCCAUGUCAGUGU` | ADAMTS8 | -0.02973 |
| 27 | `AACUUAAACAGAUAUUCUG` | TFDP3 | 0.007911 |
| 28 | `UUUGCAAUCGUUGUGGAUG` | RSL24D1P11 | -0.1293 |
| 29 | `AAAUCCAUGGGCUUUGUAC` | SPNS3 | 0.05494 |
| 30 | `UCUUGUACCAGGUUACCGC` | IL18RAP | -0.2508 |
| 31 | `AACUGUUCGGAUUUCAUUC` | AK1 | -0.1655 |
| 32 | `UCUCGUUUAAAGUCAUCCC` | IMMT | -0.7381 |
| 33 | `UCUUGUACAAGUUGUCCUC` | ITGB2 | 0.06495 |
| 34 | `UUCUUGUAGACAGUGUCUG` | DPYSL5 | 0.1873 |
| 35 | `UUGUUGAGCAUUAGGUUCG` | PREX2 | 0.4481 |
| 36 | `UCGGCUAUUAUAUUUGGUG` | ARFGAP2 | -0.1011 |
| 37 | `UCAGAUUUUGGAUAGUGUC` | FRMD6-AS1 | 0.2411 |
| 38 | `UUCUUCAUUAGAGUUCUAC` | NEUROG1 | -0.4005 |
| 39 | `UCUGUCUAAGGGACUCUGC` | PCDHGA1 | -0.6601 |
| 40 | `UAAGUCGAAUGAUGGAUGC` | NPAS3 | 0.3304 |
| 41 | `UUCUCAUCUGCAAUCUUCC` | SHMT1 | 0.322 |
| 42 | `UUUUCAACUGCAUAUUUUG` | SDR16C5 | 0.02548 |
| 43 | `UCUCUCAUAAGCUAAGCUG` | BCL2L15 | -0.07598 |
| 44 | `UUACUGACAAUAUCAUUUG` | ULBP2 | 0.4613 |
| 45 | `UCCGGUUCCAUAUUCACUG` | CHD3 | -0.4348 |
| 46 | `UAACGUAUCUGAAGUCCGG` | DSCAM | 0.491 |
| 47 | `AAGUGGAUAAUCGUAUUUG` | SLC26A3 | 0.5723 |
| 48 | `UUCGUUCUGACACCUCUAG` | PRKAR2A | 1.27 |
| 49 | `AUUAGGACUGACGUGUUUC` | LHX8 | 1.082 |
| 50 | `AUCUGGAUAUUGUUCGUCC` | PIK3R6 | 0.1104 |
| 51 | `ACAAUGAUCACUGACAUGG` | CPNE1 | -0.3068 |
| 52 | `UUGUGACCAAAAAUACACC` | NIPAL2 | -0.7949 |
| 53 | `UUGCAAAACUGCUUGGACU` | EBF4 | 0.004029 |
| 54 | `UCAGAUUAAAUCGUGCUAC` | GAPVD1 | 0.4529 |
| 55 | `UCUUGAGAUAGGGAGGUCC` | MDC1 | 0.8574 |
| 56 | `UCUCUUCAUAAAGAUUACC` | GCM1 | -0.4886 |
| 57 | `UUCUCAAUCACCGAGGGCU` | MCAT | -0.6591 |
| 58 | `UCAGGUUGCACAAUUAGGC` | IFNA2 | 0.9084 |
| 59 | `UCCAUGUCCAGAUAAGUAG` | OGFOD1 | -0.8438 |
| 60 | `UACCUAACACCAGUUAGUG` | RBL2 | -0.4031 |
| 61 | `AUGAUAACAAAGUUGUCCC` | AP1M1 | 0.02418 |
| 62 | `UAAAGCUAAAGAAGAGUCC` | TSPAN31 | 0.7767 |
| 63 | `UCUAUAAGUUCCACUGUCC` | MANBA | 0.2547 |
| 64 | `UUCCCGAACAAAGAAUGCC` | ZYG11B | -0.3182 |
| 65 | `UUUCUGUAGACAUUGGAGC` | MRGPRE | -0.7763 |
| 66 | `UCUGAUACAACCACUGCCG` | PRSS16 | -0.8675 |
| 67 | `UUUUUGACCAAGGCCUGUC` | CCND3 | 0.5369 |
| 68 | `UUACUCUUCACCUUAGUGC` | MTMR7 | -0.7791 |
| 69 | `AACAGGGUGAAACAGUUCA` | GCOM2 | -0.9739 |
| 70 | `UUUGGGUCUAGUUUCCAAG` | ZNF135 | -0.02481 |
| 71 | `UUAUUGAAGAGAGCAAGGC` | SCGB1A1 | 0.1923 |
| 72 | `UAGUCGAAGCGGAUGAGGC` | PGAP3 | 0.3645 |

Repeated from the top, 4 entries:

UCUCCGAUGAGCAACAAGG against ZNF606 read seed-corrected z-score -0.3773.
UACUUGACAUCUUCCGAUC against WWC3 read seed-corrected z-score -1.194.
UAAGUGACUCUUAUGCUUA against FAM63A read seed-corrected z-score 0.1974.
UUUCUGCUAUGUCAUGCAC against ADCK5 read seed-corrected z-score -1.224.